From the supplement of paper PMC10849652
The other results are listed elsewhere or left out. Residues, ends and D or L forms follow the SMILES beside them. *: point of attachment. Cbz = O=C(OCc1ccccc1)*

Chains of the proteins cited; added tags and fusions are not shown. Lines headed by an entry give the natural chain unless they say otherwise; changes in a name come on top.
UniProt Q13619, whole entry, looked up: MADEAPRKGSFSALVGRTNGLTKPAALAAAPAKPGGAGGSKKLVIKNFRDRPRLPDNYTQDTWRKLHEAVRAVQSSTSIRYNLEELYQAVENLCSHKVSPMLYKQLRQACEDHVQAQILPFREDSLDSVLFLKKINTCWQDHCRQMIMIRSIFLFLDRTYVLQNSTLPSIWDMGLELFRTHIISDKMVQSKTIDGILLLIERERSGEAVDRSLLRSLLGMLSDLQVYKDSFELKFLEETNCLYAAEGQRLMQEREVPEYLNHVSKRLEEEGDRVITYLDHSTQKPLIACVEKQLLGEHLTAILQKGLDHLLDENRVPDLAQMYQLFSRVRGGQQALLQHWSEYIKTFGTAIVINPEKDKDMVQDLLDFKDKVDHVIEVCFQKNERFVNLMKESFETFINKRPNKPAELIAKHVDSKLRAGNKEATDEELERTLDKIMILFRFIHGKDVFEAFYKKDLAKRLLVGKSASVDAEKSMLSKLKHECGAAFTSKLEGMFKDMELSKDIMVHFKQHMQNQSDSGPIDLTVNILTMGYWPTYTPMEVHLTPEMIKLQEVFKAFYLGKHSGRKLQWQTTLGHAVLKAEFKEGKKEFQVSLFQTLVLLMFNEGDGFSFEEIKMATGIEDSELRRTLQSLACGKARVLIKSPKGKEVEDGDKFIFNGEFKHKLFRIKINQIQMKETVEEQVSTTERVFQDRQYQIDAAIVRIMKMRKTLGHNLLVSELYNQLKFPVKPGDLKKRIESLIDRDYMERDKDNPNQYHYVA
UniProt O43310: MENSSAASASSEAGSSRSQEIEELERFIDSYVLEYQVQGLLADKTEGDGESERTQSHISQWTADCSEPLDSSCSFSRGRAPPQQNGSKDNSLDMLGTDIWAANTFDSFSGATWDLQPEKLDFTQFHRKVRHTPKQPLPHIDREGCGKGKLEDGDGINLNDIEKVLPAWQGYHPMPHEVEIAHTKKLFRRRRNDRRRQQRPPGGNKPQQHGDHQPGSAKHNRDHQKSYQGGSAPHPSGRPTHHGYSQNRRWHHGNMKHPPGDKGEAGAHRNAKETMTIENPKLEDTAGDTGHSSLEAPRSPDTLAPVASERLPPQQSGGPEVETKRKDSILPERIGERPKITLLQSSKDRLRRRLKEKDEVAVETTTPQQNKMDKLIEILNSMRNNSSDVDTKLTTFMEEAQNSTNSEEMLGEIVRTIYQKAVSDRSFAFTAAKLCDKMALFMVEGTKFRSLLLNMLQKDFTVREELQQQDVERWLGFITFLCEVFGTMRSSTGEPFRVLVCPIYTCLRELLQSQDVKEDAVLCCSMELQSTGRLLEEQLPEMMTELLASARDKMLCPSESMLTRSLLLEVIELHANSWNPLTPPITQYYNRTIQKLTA
UniProt Q9BQA9: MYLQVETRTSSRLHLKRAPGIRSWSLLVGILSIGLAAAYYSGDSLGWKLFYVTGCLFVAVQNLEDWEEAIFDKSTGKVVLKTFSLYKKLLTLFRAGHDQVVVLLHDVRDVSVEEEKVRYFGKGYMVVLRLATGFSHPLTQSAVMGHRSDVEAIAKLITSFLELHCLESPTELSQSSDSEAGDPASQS
UniProt E9PJD7, whole entry, looked up: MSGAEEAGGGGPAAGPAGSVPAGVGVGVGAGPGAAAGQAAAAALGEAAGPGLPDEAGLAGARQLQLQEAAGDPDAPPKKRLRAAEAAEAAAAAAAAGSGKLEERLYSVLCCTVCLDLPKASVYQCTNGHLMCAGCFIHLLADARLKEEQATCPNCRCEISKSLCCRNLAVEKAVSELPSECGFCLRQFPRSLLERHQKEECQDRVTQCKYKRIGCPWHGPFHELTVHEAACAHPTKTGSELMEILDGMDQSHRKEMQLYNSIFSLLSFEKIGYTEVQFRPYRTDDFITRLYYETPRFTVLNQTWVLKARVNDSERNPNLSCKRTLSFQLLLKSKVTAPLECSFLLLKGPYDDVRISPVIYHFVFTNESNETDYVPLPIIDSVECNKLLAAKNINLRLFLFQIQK
UniProt Q9NWV4: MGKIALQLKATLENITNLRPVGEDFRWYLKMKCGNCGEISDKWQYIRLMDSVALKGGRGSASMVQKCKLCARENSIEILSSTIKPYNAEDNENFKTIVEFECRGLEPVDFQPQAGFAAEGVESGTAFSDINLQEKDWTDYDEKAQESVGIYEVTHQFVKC
UniProt Q8N465: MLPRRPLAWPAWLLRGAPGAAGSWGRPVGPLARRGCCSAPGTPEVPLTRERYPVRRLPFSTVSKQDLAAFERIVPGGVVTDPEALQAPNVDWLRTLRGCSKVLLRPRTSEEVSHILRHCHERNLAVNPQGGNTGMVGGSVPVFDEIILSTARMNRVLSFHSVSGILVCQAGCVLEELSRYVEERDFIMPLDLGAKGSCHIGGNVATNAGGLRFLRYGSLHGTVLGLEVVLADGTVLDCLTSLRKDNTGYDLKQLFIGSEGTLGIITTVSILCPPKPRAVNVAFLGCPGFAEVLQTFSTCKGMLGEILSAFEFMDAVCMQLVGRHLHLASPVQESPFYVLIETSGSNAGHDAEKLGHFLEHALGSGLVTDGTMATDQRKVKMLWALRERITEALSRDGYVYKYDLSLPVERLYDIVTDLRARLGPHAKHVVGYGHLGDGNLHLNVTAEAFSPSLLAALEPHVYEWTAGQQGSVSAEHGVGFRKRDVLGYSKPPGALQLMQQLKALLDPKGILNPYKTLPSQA
UniProt Q14247: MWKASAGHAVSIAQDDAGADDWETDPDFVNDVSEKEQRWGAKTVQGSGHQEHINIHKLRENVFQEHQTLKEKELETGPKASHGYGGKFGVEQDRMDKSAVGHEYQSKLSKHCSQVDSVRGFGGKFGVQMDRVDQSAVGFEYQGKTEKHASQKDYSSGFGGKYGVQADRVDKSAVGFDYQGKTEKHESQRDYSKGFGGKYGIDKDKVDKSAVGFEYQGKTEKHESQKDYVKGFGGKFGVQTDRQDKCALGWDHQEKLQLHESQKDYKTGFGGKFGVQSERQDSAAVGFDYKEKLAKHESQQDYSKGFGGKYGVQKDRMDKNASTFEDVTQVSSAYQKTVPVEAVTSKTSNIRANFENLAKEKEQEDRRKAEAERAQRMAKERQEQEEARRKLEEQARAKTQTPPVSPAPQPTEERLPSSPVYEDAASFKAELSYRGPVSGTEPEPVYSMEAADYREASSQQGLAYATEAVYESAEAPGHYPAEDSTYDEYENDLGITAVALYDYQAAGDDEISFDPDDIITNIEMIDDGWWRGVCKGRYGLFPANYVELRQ
UniProt P21291: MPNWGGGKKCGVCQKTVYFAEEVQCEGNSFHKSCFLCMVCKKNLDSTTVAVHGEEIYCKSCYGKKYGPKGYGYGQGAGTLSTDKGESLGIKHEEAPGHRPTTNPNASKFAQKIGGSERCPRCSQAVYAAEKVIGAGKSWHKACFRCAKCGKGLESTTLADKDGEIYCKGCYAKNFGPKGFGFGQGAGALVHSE
UniProt P61962: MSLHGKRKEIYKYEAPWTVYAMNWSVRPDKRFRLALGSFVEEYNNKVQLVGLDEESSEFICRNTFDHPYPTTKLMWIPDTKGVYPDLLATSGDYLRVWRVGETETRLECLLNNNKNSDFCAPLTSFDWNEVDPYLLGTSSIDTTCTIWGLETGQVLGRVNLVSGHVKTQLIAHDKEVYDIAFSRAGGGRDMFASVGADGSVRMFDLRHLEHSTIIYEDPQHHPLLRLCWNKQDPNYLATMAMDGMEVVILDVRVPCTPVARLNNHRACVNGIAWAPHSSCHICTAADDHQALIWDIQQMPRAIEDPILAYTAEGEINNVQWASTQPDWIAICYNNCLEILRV
UniProt Q05048: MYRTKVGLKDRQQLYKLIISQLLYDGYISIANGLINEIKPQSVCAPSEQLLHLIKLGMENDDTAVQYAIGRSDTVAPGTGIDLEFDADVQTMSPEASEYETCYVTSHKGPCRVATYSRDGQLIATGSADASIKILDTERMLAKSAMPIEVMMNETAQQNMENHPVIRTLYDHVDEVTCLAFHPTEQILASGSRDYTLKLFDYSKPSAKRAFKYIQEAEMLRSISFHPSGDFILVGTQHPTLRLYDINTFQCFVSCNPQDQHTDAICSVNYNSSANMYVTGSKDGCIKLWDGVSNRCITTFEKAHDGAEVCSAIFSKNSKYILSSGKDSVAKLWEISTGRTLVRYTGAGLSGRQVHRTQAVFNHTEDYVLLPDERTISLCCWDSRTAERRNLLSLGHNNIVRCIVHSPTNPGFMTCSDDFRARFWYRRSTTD
UniProt Q5JQC4: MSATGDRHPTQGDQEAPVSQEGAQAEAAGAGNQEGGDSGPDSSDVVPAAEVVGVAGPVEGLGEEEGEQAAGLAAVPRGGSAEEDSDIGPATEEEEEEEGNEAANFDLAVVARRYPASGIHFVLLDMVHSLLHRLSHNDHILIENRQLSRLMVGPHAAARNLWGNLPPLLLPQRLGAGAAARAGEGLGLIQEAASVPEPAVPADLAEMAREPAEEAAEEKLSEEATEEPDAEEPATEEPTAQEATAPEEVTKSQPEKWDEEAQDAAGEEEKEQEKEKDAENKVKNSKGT
UniProt Q8WVC6: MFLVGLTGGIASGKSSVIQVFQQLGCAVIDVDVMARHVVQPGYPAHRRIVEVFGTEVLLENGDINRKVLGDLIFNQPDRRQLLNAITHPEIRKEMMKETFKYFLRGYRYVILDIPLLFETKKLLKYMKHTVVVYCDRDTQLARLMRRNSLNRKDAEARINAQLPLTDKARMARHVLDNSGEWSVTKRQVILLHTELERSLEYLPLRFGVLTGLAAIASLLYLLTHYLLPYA
UniProt Q2VPK5: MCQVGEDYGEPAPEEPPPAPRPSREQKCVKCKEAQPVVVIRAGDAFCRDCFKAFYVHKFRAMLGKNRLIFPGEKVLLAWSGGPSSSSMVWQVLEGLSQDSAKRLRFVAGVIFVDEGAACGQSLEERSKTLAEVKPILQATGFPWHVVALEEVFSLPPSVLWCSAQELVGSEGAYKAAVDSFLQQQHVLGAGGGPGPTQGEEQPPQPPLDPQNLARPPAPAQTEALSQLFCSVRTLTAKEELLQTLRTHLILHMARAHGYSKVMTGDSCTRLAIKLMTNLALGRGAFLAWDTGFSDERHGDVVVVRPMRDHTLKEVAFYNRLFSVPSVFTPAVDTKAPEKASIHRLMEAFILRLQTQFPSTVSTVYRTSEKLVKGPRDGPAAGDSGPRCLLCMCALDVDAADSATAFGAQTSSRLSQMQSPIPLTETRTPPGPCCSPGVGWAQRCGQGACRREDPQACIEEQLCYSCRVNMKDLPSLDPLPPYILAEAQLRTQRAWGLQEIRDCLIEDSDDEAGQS
UniProt P07108: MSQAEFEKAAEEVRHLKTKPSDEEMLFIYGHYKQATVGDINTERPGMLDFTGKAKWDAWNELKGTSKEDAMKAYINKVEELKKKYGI

Columns and labels:
Assay in all cases: log2 fold change, soluble protein after heating vs DMSO (PISA); higher = thermal stabilisation; K562 cells, 10 uM, 30 min; active = over 0.2 and 3.5 SD of the protein, either way, in both replicates (recomputed)
IRAK-1-4 Inhibitor I = compound: C1COCCN1CCN2C3=CC=CC=C3N=C2NC(=O)C4=CC(=CC=C4)[N+](=O)[O-] [IRAK-1-4 Inhibitor I]
In short: (§1)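 Aliquots of K562 cells (2×10^6 cells/mL) treated with 10 μM compound for 30 min were heated for 3 min over 48°C-58°C. After pooling and extraction in PBS with 0.5% NP-40 at 4°C, soluble protein from a 21,000xg, 90 min spin was quantified by TMTpro 16plex LC-MS/MS with channel sums equalised. Thermal stability is expressed against control samples, from duplicates, as a log2 fold change.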

ibrutinib = compound: C=CC(=O)N1CCC[C@@H](n2nc(-c3ccc(Oc4ccccc4)cc3)c3c(N)ncnc32)C1 [ibrutinib]
In short: as §1

[1] = compound: CC(=O)c1cnc2ccc(-c3cc(Cl)c(O)c(Cl)c3)nc2c1N[C@H]1CC[C@H](CN(C)C)CC1
In short: as §1

ralimetinib = compound: CC(C)(C)Cn1c(N)nc2ccc(-c3[nH]c(C(C)(C)C)nc3-c3ccc(F)cc3)nc21 [ralimetinib]
In short: as §1

[2] = compound: CC(C)(O)CC(=O)NCCn1ccc2ncnc(Nc3ccc(Oc4cccc(C(F)(F)F)c4)c(Cl)c3)c21
In short: as §1

[3] = compound: CC(C)C1=C2N=C(C=C(N2N=C1)NCC3=CC=CC=C3)NCCCCCCN
In short: as §1

[4] = compound: CC(C)C[C@@H](C=O)NC(=O)[C@H](CC(C)C)NC(=O)[C@H](CC(C)C)NC(=O)OCc1ccccc1
In short: as §1

pinometostat = compound: CC(C)N(C[C@H]1O[C@@H](n2cnc3c(N)ncnc32)[C@H](O)[C@@H]1O)[C@H]1C[C@@H](CCc2nc3cc(C(C)(C)C)ccc3[nH]2)C1 [pinometostat]
In short: as §1

[5] = compound: CC1=C(C(CC(=O)N1)C2=CC=C(C=C2)C(F)(F)F)C(=O)NC3=C(C=C4C(=C3)C=NN4)F
In short: as §1

[6] = compound: CC1=C(C2=C(C=C1)C(=O)C3=CC=CC=C3N2CCCN)C
In short: as §1

[7] = compound: CC1=C(C=C(C=C1)NC(=O)C2=CC(=CC=C2)C(C)(C)C#N)NC3=CC4=C(C=C3)N=CN(C4=O)C
In short: as §1

[8] = compound: CC1=C(C=C(C=C1)NC(=O)C2=CC(=CC=C2)N(C)C)NC(=O)C3=CC=C(C=C3)O
In short: as §1

[9] = compound: CC1=CC=C(C=C1)SC2=C3C=C(SC3=CN=C2)C(=O)N
In short: as §1

[10] = compound: CC1=NC(=CC=C1)C2=C(N=C(N2)C(C)(C)C)C3=CC4=NC=CN=C4C=C3
In short: as §1

Nexturastat A = compound: CCCCN(Cc1ccc(C(=O)NO)cc1)C(=O)Nc1ccccc1 [Nexturastat A]
In short: as §1

vemurafenib = compound: CCCS(=O)(=O)Nc1ccc(F)c(C(=O)c2c[nH]c3ncc(-c4ccc(Cl)cc4)cc23)c1F [vemurafenib]
In short: as §1

[11] = compound: CCCS(=O)(=O)Nc1ccc(F)c(C(=O)c2c[nH]c3ncc(Cl)cc23)c1F
In short: as §1

[12] = compound: CCCc1cc(C)[nH]c(=O)c1CNC(=O)c1cc(-c2ccnc(N3CCN(C)CC3)c2)cc2c1cnn2C(C)C
In short: as §1

givinostat = compound: CCN(CC)Cc1ccc2cc(COC(=O)Nc3ccc(C(=O)NO)cc3)ccc2c1 [givinostat]
In short: as §1

barasertib = compound: CCN(CCCOc1ccc2c(Nc3cc(CC(=O)Nc4cccc(F)c4)[nH]n3)ncnc2c1)CCOP(=O)(O)O [barasertib]
In short: as §1

Measured: log2 fold change

CUL4A (UniProt Q13619)
inactive: IRAK-1-4 Inhibitor I -0.004 | ibrutinib -0.016 | [1] -0.007 | ralimetinib 0.013 | [2] -0.048 | [3] -0.012 | [4] -0.04 | pinometostat -0.038 | [5] 0.01 | [6] -0.008 | [7] 0.037 | [8] -0.029 | [9] 0.036 | [10] 0.075 | Nexturastat A -0.017 | vemurafenib -0.001 | [11] 0.061 | [12] -0.029 | givinostat 0.033 | barasertib 0.01

CTIF isoform 2 (UniProt O43310)
inactive: IRAK-1-4 Inhibitor I 0.106 | ibrutinib -0.134 | [1] 0.001 | ralimetinib 0.058 | [2] -0.142 | [3] 0.085 | [4] -0.136 | pinometostat 0.05 | [5] -0.214 | [6] 0.04 | [7] -0.092 | [8] -0.024 | [9] 0.009 | [10] -0.173 | Nexturastat A -0.038 | vemurafenib 0.063 | [11] 0.038 | [12] -0.024 | givinostat -0.029 | barasertib 0.017

CYBC1 (UniProt Q9BQA9)
inactive: IRAK-1-4 Inhibitor I 0.021 | ibrutinib -0.058 | [1] 0.005 | ralimetinib -0.03 | [2] -0.009 | [3] -0.079 | [4] -0.011 | pinometostat -0.101 | [5] 0.038 | [6] -0.024 | [7] -0.046 | [8] 0.07 | [9] 0.014 | [10] 0.025 | Nexturastat A -0.014 | vemurafenib -0.037 | [11] -0.018 | [12] -0.044 | givinostat -0.009 | barasertib 0.007

CYHR1 (UniProt E9PJD7)
inactive: IRAK-1-4 Inhibitor I -0.005 | ibrutinib 0.073 | [1] -0.013 | ralimetinib -0.111 | [2] -0.047 | [3] 0.207 | [4] 0.052 | pinometostat 0.033 | [5] -0.062 | [6] 0.06 | [7] 0.043 | [8] 0.102 | [9] -0.038 | [10] -0.004 | Nexturastat A -0.098 | vemurafenib -0.063 | [11] -0.039 | [12] -0.001 | givinostat -0.063 | barasertib 0.009

CZIB (UniProt Q9NWV4)
inactive: IRAK-1-4 Inhibitor I 0.037 | ibrutinib -0.002 | [1] 0.044 | ralimetinib -0.062 | [2] -0.015 | [3] -0.002 | [4] 0 | pinometostat -0.021 | [5] -0.012 | [6] -0.062 | [7] -0.01 | [8] -0.019 | [9] -0.017 | [10] 0.05 | Nexturastat A -0.103 | vemurafenib 0.012 | [11] 0.003 | [12] -0.051 | givinostat -0.086 | barasertib 0.016

D2HGDH (UniProt Q8N465)
inactive: IRAK-1-4 Inhibitor I -0.093 | ibrutinib -0.027 | [1] -0.006 | ralimetinib -0.122 | [2] -0.04 | [3] 0.089 | [4] -0.05 | pinometostat -0.022 | [5] -0.016 | [6] -0.047 | [7] 0.011 | [8] -0.101 | [9] 0.004 | [10] 0.004 | Nexturastat A -0.127 | vemurafenib -0.011 | [11] 0.005 | [12] 0.047 | givinostat -0.036 | barasertib 0.036

CTTN (UniProt Q14247)
inactive: IRAK-1-4 Inhibitor I 0.064 | ibrutinib 0.001 | [1] 0.024 | ralimetinib -0.012 | [2] 0.017 | [3] 0.069 | [4] -0.006 | pinometostat -0.019 | [5] -0.007 | [6] 0.035 | [7] -0.026 | [8] 0.006 | [9] -0.005 | [10] 0.017 | Nexturastat A -0.095 | vemurafenib -0.023 | [11] -0.028 | [12] -0.045 | givinostat -0.039 | barasertib 0

CSRP1 (UniProt P21291)
inactive: IRAK-1-4 Inhibitor I 0.041 | ibrutinib 0.025 | [1] 0.038 | ralimetinib 0.005 | [2] 0.017 | [3] 0.06 | [4] -0.059 | pinometostat -0.055 | [5] 0.023 | [6] 0.018 | [7] -0.03 | [8] -0.014 | [9] 0.019 | [10] -0.021 | Nexturastat A -0.001 | vemurafenib -0.01 | [11] -0.001 | [12] 0.026 | givinostat -0.006 | barasertib -0.025

DCAF7 (UniProt P61962)
inactive: IRAK-1-4 Inhibitor I 0.044 | ibrutinib 0.015 | [1] -0.075 | ralimetinib -0.046 | [2] -0.012 | [3] -0.029 | [4] 0.099 | pinometostat 0.017 | [5] 0.035 | [6] 0.02 | [7] 0.01 | [8] -0.005 | [9] 0.014 | [10] 0.044 | Nexturastat A 0.028 | vemurafenib -0.018 | [11] -0.002 | [12] -0.02 | givinostat 0.016 | barasertib 0.007

CSTF1 (UniProt Q05048)
inactive: IRAK-1-4 Inhibitor I 0.012 | ibrutinib -0.011 | [1] 0.043 | ralimetinib -0.136 | [2] 0.021 | [3] 0.126 | [4] -0.098 | pinometostat -0.079 | [5] 0.079 | [6] 0.158 | [7] -0.027 | [8] -0.052 | [9] 0.022 | [10] 0.004 | Nexturastat A -0.169 | vemurafenib -0.026 | [11] -0.033 | [12] -0.066 | givinostat -0.115 | barasertib -0.02

CT47A1 (UniProt Q5JQC4)
inactive: IRAK-1-4 Inhibitor I -0.051 | ibrutinib 0.006 | [1] -0.015 | ralimetinib 0.145 | [2] 0.004 | [3] -0.065 | [4] 0.013 | pinometostat 0.088 | [5] 0.028 | [6] -0.016 | [7] 0.034 | [8] -0.003 | [9] -0.004 | [10] 0.021 | Nexturastat A 0.012 | vemurafenib 0.025 | [11] 0.023 | [12] 0.06 | givinostat 0.028 | barasertib 0.067

DCAKD (UniProt Q8WVC6)
inactive: IRAK-1-4 Inhibitor I 0.007 | ibrutinib -0.015 | [1] -0.015 | ralimetinib -0.02 | [2] -0.102 | [3] -0.168 | [4] 0.032 | pinometostat 0.026 | [5] -0.123 | [6] 0.101 | [7] -0.035 | [8] -0.005 | [9] -0.004 | [10] -0.162 | Nexturastat A 0.084 | vemurafenib 0.015 | [11] 0 | [12] -0.044 | givinostat 0.004 | barasertib 0.068

CTU2 (UniProt Q2VPK5)
inactive: IRAK-1-4 Inhibitor I 0.093 | ibrutinib 0.002 | [1] 0.025 | ralimetinib -0.03 | [2] -0.046 | [3] -0.012 | [4] 0.023 | pinometostat 0 | [5] -0.007 | [6] 0.004 | [7] -0.021 | [8] -0.005 | [9] 0 | [10] 0.104 | Nexturastat A -0.085 | vemurafenib -0.02 | [11] 0.031 | [12] -0.071 | givinostat 0.006 | barasertib 0.006

DBI isoform 5 (UniProt P07108)
inactive: IRAK-1-4 Inhibitor I -0.056 | ibrutinib 0.041 | [1] -0.017 | ralimetinib -0.167 | [2] -0.003 | [3] 0.1 | [4] -0.034 | pinometostat -0.08 | [5] 0.068 | [6] 0.191 | [7] -0.021 | [8] -0.114 | [9] 0.052 | [10] 0.023 | Nexturastat A 0.159 | vemurafenib 0.011 | [11] -0.039 | [12] 0.012 | givinostat 0.012 | barasertib 0.035

Two successive records already listed:
CZIB (UniProt Q9NWV4)
inactive: IRAK-1-4 Inhibitor I 0.037 | ibrutinib -0.002 | [1] 0.044 | ralimetinib -0.062 | [2] -0.015 | [3] -0.002 | [4] 0 | pinometostat -0.021 | [5] -0.012 | [6] -0.062 | [7] -0.01 | [8] -0.019 | [9] -0.017 | [10] 0.05 | Nexturastat A -0.103 | vemurafenib 0.012 | [11] 0.003 | [12] -0.051 | givinostat -0.086 | barasertib 0.016

D2HGDH (UniProt Q8N465)
inactive: IRAK-1-4 Inhibitor I -0.093 | ibrutinib -0.027 | [1] -0.006 | ralimetinib -0.122 | [2] -0.04 | [3] 0.089 | [4] -0.05 | pinometostat -0.022 | [5] -0.016 | [6] -0.047 | [7] 0.011 | [8] -0.101 | [9] 0.004 | [10] 0.004 | Nexturastat A -0.127 | vemurafenib -0.011 | [11] 0.005 | [12] 0.047 | givinostat -0.036 | barasertib 0.036

Further entries.

CTBP1 (UniProt Q13363)
inactive: IRAK-1-4 Inhibitor I 0.047 | ibrutinib 0.039 | [1] -0.009 | ralimetinib -0.046 | [2] 0.009 | [3] 0.054 | [4] 0.141 | pinometostat -0.048 | [5] 0.038 | [6] 0.025 | [7] 0.003 | [8] -0.028 | [9] 0.026 | [10] 0.008 | Nexturastat A -0.046 | vemurafenib 0.005 | [11] -0.056 | [12] -0.069 | givinostat -0.002 | barasertib -0.004
